The values below come from article PMC6599211, “Structural basis of TFIIH activation for nucleotide excision repair” (Nature Communications, 2019).

The chains behind the UniProt entries cited, without tags or fusion partners.
UniProt P19447: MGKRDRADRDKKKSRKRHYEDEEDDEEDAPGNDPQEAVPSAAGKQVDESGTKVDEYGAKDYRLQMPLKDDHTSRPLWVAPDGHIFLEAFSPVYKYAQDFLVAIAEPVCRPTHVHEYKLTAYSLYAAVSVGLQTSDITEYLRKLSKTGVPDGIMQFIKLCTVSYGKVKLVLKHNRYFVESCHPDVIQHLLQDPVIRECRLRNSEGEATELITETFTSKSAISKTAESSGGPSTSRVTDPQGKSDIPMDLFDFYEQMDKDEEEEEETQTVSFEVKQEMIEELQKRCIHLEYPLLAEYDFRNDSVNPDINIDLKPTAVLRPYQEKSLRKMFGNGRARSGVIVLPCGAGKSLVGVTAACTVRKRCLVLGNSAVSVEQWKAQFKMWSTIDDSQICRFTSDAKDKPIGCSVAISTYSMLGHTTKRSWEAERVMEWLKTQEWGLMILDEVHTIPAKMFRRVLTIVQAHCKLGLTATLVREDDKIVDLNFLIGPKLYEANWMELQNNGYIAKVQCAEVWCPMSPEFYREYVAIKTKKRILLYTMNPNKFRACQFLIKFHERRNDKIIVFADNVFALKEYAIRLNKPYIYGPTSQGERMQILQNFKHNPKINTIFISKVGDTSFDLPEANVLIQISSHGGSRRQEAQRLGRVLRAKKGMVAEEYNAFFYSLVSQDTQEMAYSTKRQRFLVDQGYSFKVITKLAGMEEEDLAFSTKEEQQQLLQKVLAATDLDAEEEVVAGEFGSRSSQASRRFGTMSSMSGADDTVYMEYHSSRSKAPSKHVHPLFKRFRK
UniProt Q6ZYL4: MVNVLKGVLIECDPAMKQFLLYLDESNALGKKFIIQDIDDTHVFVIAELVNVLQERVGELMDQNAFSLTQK

One assay addresses T1, XPD (human) (UniProt P18074).
T1 sequence: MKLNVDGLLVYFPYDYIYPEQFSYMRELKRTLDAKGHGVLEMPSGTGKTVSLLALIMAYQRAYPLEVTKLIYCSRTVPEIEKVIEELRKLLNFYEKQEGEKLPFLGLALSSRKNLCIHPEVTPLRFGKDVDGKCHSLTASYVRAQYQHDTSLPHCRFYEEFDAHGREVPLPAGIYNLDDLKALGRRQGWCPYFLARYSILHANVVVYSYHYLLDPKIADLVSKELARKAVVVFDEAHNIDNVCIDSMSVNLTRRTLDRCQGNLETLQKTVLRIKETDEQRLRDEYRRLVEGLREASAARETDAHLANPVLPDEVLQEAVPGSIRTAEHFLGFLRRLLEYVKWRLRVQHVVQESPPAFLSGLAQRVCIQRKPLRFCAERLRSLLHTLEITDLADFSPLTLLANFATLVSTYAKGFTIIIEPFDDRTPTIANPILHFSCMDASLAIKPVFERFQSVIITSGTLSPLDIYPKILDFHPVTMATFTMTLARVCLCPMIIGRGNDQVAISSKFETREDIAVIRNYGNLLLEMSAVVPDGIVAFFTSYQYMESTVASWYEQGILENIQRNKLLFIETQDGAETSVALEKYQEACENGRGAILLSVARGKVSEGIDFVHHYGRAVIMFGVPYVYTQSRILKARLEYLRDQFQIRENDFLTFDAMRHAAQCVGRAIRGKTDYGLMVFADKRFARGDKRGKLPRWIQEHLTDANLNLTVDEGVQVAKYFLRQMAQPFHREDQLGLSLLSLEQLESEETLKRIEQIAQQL
In words: co-purification; subunits co-expressed in Hi5 cells; HisTrap, amylose resin (MBP on XPD), TEV cleavage, DEAE/heparin, Superose 6; 400 mM KCl, pH 7.0.

A further assay addresses T2, p52 (human) (UniProt Q92759).
T2 sequence: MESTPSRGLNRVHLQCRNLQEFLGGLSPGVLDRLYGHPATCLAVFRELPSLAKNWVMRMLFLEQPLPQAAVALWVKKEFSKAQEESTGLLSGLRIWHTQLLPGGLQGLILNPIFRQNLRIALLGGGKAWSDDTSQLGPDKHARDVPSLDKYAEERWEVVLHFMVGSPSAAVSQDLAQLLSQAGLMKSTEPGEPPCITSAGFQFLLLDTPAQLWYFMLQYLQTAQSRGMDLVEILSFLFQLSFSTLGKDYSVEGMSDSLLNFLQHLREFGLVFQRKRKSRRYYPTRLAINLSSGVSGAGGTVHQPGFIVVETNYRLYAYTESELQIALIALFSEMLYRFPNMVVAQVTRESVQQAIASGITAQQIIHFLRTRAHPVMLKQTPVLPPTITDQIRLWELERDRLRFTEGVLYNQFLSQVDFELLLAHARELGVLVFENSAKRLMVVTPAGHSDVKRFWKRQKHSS
In words: cross-linking; core TFIIH, XPA, XPG and bifurcated DNA scaffold mixed 1:2:2:1.5, 150 mM KCl, pH 7.5, purified on Superose 6 increase; 2 mM BS3, 30 min, 30 °C; cross-linked peptides identified by mass spectrometry (pLink, FDR 1%); both purified.

For another assay, the target named is XPB (human) (UniProt P19447). Described as above.

No constants are given. Whether binding was seen depends on the method and setting. Some binding calls cover weakened binding; strength is not graded here.

Consider TTDA/p8 (from UniProt Q6ZYL4 1-71), for which the binding entry with XPD (human) is recorded as “binds”.

B1: XPG (natural protein, human, UniProt P28715 1-1186, looked up)
chain: MGVQGLWKLLECSGRQVSPEALEGKILAVDISIWLNQALKGVRDRHGNSIENPHLLTLFHRLCKLLFFRIRPIFVFDGDAPLLKKQTLVKRRQRKDLASSDSRKTTEKLLKTFLKRQAIKTAFRSKRDEALPSLTQVRRENDLYVLPPLQEEEKHSSEEEDEKEWQERMNQKQALQEEFFHNPQAIDIESEDFSSLPPEVKHEILTDMKEFTKRRRTLFEAMPEESDDFSQYQLKGLLKKNYLNQHIEHVQKEMNQQHSGHIRRQYEDEGGFLKEVESRRVVSEDTSHYILIKGIQAKTVAEVDSESLPSSSKMHGMSFDVKSSPCEKLKTEKEPDATPPSPRTLLAMQAALLGSSSEEELESENRRQARGRNAPAAVDEGSISPRTLSAIKRALDDDEDVKVCAGDDVQTGGPGAEEMRINSSTENSDEGLKVRDGKGIPFTATLASSSVNSAEEHVASTNEGREPTDSVPKEQMSLVHVGTEAFPISDESMIKDRKDRLPLESAVVRHSDAPGLPNGRELTPASPTCTNSVSKNETHAEVLEQQNELCPYESKFDSSLLSSDDETKCKPNSASEVIGPVSLQETSSIVSVPSEAVDNVENVVSFNAKEHENFLETIQEQQTTESAGQDLISIPKAVEPMEIDSEESESDGSFIEVQSVISDEELQAEFPETSKPPSEQGEEELVGTREGEAPAESESLLRDNSERDDVDGEPQEAEKDAEDSLHEWQDINLEELETLESNLLAQQNSLKAQKQQQERIAATVTGQMFLESQELLRLFGIPYIQAPMEAEAQCAILDLTDQTSGTITDDSDIWLFGARHVYRNFFNKNKFVEYYQYVDFHNQLGLDRNKLINLAYLLGSDYTEGIPTVGCVTAMEILNEFPGHGLEPLLKFSEWWHEAQKNPKIRPNPHDTKVKKKLRTLQLTPGFPNPAVAEAYLKPVVDDSKGSFLWGKPDLDKIREFCQRYFGWNRTKTDESLFPVLKQLDAQQTQLRIDSFFRLAQQEKEDAKRIKSQRLNRAVTCMLRKEKEAAASEIEAVSVAMEKEFELLDKAKGKTQKRGITNTLEESSSLKRKRLSDSKGKNTCGGFLGETCLSESSDGSSSEDAESSSLMNVQRRTAAKEPKTSASDSQNSVKEAPVKNGGATTSSSSDSDDDGGKEKMVLVTARSVFGKKRRKLRRARGRKRKT
As to B1, the binding result with p52 (human) and with XPB (human) was “binds” each time.

B2: p52 (protein, UniProt Q92759 1-462)
chain: MESTPSRGLNRVHLQCRNLQEFLGGLSPGVLDRLYGHPATCLAVFRELPSLAKNWVMRMLFLEQPLPQAAVALWVKKEFSKAQEESTGLLSGLRIWHTQLLPGGLQGLILNPIFRQNLRIALLGGGKAWSDDTSQLGPDKHARDVPSLDKYAEERWEVVLHFMVGSPSAAVSQDLAQLLSQAGLMKSTEPGEPPCITSAGFQFLLLDTPAQLWYFMLQYLQTAQSRGMDLVEILSFLFQLSFSTLGKDYSVEGMSDSLLNFLQHLREFGLVFQRKRKSRRYYPTRLAINLSSGVSGAGGTVHQPGFIVVETNYRLYAYTESELQIALIALFSEMLYRFPNMVVAQVTRESVQQAIASGITAQQIIHFLRTRAHPVMLKQTPVLPPTITDQIRLWELERDRLRFTEGVLYNQFLSQVDFELLLAHARELGVLVFENSAKRLMVVTPAGHSDVKRFWKRQKHSS
Regarding B2, in the assay with XPD (human), the binding result is “binds”.
